# Measurements from article PMC11531364.
# Amino acid sequences for entries named in this document (tags omitted). Residues count along the entry.
# UniProt P16473, residues 21-764: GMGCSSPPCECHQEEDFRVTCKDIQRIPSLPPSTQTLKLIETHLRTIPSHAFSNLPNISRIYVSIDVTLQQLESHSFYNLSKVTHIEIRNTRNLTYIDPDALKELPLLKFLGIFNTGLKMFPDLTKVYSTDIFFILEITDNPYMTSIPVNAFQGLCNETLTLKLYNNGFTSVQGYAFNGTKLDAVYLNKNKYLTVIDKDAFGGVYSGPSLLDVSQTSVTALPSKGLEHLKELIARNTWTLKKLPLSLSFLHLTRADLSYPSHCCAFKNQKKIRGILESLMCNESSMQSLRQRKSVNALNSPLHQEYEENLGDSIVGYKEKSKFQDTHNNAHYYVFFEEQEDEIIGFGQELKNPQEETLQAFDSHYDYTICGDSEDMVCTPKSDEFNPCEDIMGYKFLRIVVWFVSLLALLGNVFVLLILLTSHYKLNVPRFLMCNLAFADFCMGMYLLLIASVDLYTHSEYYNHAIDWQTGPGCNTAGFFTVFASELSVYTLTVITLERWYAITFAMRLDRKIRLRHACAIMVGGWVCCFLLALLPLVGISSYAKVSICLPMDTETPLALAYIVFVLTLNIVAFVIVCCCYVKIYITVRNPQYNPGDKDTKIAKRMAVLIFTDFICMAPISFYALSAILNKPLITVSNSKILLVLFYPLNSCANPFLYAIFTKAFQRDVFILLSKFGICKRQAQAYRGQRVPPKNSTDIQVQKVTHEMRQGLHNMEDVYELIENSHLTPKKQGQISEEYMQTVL
# Results are given in words; binding and its absence hold for the method and conditions named. Binding seen in cells or lysates may run through a third protein. Some binding calls cover weakened binding; strength is not graded here.
# Molecular target: T1, Polypeptide N-acetylgalactosaminyltransferase 7 (human (endogenous in THP-1)) (UniProt Q86SF2)
# T1 sequence: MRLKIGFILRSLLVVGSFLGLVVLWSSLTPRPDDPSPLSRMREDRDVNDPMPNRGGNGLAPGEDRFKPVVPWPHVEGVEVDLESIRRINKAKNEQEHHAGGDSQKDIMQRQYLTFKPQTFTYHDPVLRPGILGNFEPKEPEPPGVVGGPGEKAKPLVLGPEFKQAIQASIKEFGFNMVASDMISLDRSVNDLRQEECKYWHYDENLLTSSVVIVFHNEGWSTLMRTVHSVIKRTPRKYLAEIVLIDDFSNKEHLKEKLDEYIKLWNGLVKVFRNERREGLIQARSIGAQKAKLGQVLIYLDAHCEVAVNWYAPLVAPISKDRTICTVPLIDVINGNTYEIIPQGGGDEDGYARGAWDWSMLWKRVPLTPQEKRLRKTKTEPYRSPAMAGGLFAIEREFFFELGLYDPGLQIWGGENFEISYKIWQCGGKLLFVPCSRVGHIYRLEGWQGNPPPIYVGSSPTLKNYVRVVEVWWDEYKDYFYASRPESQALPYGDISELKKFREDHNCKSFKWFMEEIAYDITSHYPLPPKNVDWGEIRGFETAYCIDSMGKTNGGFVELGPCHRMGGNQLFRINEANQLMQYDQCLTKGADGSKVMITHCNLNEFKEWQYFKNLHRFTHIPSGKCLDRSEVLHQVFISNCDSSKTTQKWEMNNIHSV
# Test: co-IP; THP-1 cell lysates incubated with anti-GALNT7 or TSHR antibodies or normal IgG overnight at 4°C, then protein A/G agarose 4 h at 4°C; Western blot; whole-cell lysate as input
substance,measurement,value
Thyroid stimulating hormone receptor (from UniProt P16473 21-764),binding,binds
